Numbering of substitutions follows the chain as printed. Names may count otherwise. No constants are given. Whether binding was seen depends on the method and setting. In cells and extracts the contact can be indirect. Some entries that bind do so weakly or less than the wild type. Blank lines part the entries; values can stand above or below the binder they belong to.
Legend:
[1] = target: T1, μ1A subunit of AP-1A, endogenous in rat PCCl3 cells (rat (endogenous in PCCl3)) (UniProt Q32Q06); assay: co-IP; endogenous proteins of PCCl3 cells; IP with rNIS, μ1A or μ1B antibodies, Western blotting of input and IP complexes
T1 sequence: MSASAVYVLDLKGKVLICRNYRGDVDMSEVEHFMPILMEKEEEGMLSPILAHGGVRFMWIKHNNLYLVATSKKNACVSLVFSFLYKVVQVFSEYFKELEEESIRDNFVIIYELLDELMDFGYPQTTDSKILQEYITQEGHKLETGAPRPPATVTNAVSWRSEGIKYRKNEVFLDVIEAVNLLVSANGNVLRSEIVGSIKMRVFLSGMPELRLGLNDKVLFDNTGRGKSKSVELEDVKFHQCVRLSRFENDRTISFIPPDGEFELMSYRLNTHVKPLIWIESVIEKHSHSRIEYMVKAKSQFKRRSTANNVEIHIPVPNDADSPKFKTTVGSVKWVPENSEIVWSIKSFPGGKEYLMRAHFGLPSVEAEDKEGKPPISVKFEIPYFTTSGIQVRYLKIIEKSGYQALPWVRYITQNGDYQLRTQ

[2] = target: T2, μ1B (AP1M2) expressed from cDNA in COS-7 cells (UniProt Q9Y6Q5); assay: co-IP; COS-7 cells cotransfected with WT hNIS or mutants and with μ1A or μ1B; IP with μ1A or μ1B antibodies, immunoblot with rabbit polyclonal anti-hNIS antibody; NIS signal in IP standardized to input and normalized to WT
T2 sequence: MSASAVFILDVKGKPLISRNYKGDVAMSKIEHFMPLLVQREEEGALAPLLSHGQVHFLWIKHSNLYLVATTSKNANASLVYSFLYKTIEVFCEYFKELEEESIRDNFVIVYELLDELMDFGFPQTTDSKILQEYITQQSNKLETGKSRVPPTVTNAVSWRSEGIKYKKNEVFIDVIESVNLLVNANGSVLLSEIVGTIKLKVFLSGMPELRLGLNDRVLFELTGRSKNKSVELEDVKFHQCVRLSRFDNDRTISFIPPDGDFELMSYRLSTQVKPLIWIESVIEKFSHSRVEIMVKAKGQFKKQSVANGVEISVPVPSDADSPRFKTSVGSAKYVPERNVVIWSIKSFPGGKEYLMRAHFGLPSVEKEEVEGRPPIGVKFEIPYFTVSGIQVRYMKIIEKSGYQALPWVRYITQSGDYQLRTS

[3] = target: T3, μ1A (AP1M1) expressed from cDNA in COS-7 cells (UniProt Q9BXS5); assay: as above
T3 sequence: T1 sequence with A178S, V295I

- binding [1]: binds
B1: sodium/iodide symporter (NIS), endogenous in rat PCCl3 cells (protein, UniProt Q63008 1-618)
chain: MEGAEAGARATFGAWDYGVFATMLLVSTGIGLWVGLARGGQRSADDFFTGGRQLAAVPVGLSLAASFMSAVQVLGVPAEAARYGLKFLWMCAGQLLNSLLTAFLFLPIFYRLGLTSTYQYLELRFSRAVRLCGTLQYLVATMLYTGIVIYAPALILNQVTGLDIWASLLSTGIICTLYTTVGGMKAVVWTDVFQVVVMLVGFWVILARGVILLGGPRNVLSLAQNHSRINLMDFDPDPRSRYTFWTFIVGGTLVWLSMYGVNQAQVQRYVACHTEGKAKLALLVNQLGLFLIVASAACCGIVMFVYYKDCDPLLTGRISAPDQYMPLLVLDIFEDLPGVPGLFLACAYSGTLSTASTSINAMAAVTVEDLIKPRMPGLAPRKLVFISKGLSFIYGSACLTVAALSSLLGGGVLQGSFTVMGVISGPLLGAFTLGMLLPACNTPGVLSGLAAGLAVSLWVAVGATLYPPGEQTMGVLPTSAAGCTNDSVLLGPPGATNASNGIPSSGMDTGRPALADTFYAISYLYYGALGTLTTMLCGALISYLTGPTKRSSLGPGLLWWDLARQTASVAPKEDTATLEESLVKGPEDIPAVTKKPPGLKPGAETHPLYLGHDVETNL

- binding [2]: binds
- binding [3]: binds
B2: hNIS Y120A (protein, UniProt Q92911 1-643)
chain: MEAVETGERPTFGAWDYGVFALMLLVSTGIGLWVGLARGGQRSAEDFFTGGRRLAALPVGLSLSASFMSAVQVLGVPSEAYRYGLKFLWMCLGQLLNSVLTALLFMPVFYRLGLTSTYEALEMRFSRAVRLCGTLQYIVATMLYTGIVIYAPALILNQVTGLDIWASLLSTGIICTFYTAVGGMKAVVWTDVFQVVVMLSGFWVVLARGVMLVGGPRQVLTLAQNHSRINLMDFNPDPRSRYTFWTFVVGGTLVWLSMYGVNQAQVQRYVACRTEKQAKLALLINQVGLFLIVSSAACCGIVMFVFYTDCDPLLLGRISAPDQYMPLLVLDIFEDLPGVPGLFLACAYSGTLSTASTSINAMAAVTVEDLIKPRLRSLAPRKLVIISKGLSLIYGSACLTVAALSSLLGGGVLQGSFTVMGVISGPLLGAFILGMFLPACNTPGVLAGLGAGLALSLWVALGATLYPPSEQTMRVLPSSAARCVALSVNASGLLDPALLPANDSSRAPSSGMDASRPALADSFYAISYLYYGALGTLTTVLCGALISCLTGPTKRSTLAPGLLWWDLARQTASVAPKEEVAILDDNLVKGPEELPTGNKKPPGFLPTNEDRLFFLGQKELEGAGSWTPCVGHDGGRDQQETNL
